Test results reported in publication PMC12381781, “Structural and functional insights into the selective inhibition of mutant tau aggregation by purpurin and oleocanthal in frontotemporal dementia” (Protein Science : A Publication of the Protein Society, 2025).

Experiment: Control fluorescence measurement without tau peptide (ThT interference)
Settings: 10 µM, no tau peptide, aggregation buffer, 48 h

SMILES	interference with ThT fluorescence reading
O=C1c2ccccc2C(=O)c2c(O)c(O)cc(O)c21 [PUR, purpurin]	do not interfere with ThT readings
C/C=C(/C=O)[C@@H](CC=O)CC(=O)OCCc1ccc(O)cc1 [OLC, oleocanthal]	do not interfere with ThT readings
